In PMC7816512:
These are yes or no findings as the source states them, for the method shown. In cells and extracts the contact can be indirect. A yes stands for co-enrichment or nearness to the bait. Other partners may have been found. Tags and fused reporters may be left off the sequences shown.

By UniProt entry, the sequences of proteins in these tests, tags left out. Where a name states a change or a piece, a line headed by the entry shows the natural chain unless it says otherwise.
UniProt O74970: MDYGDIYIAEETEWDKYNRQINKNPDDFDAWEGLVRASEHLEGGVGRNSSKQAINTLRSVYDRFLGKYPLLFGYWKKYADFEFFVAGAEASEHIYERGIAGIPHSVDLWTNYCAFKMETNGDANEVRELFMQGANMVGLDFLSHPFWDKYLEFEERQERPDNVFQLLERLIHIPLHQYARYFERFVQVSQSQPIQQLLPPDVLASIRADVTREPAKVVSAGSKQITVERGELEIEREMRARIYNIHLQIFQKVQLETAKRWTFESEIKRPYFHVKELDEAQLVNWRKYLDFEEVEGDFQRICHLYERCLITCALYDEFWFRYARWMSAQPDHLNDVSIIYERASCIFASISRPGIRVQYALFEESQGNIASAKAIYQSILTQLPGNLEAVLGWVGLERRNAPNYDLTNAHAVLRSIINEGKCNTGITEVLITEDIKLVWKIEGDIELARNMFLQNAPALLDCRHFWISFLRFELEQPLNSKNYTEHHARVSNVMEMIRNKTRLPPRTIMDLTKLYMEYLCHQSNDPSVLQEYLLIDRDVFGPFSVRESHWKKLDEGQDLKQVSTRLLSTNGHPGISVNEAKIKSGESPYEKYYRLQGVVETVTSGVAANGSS
UniProt Q9UT24: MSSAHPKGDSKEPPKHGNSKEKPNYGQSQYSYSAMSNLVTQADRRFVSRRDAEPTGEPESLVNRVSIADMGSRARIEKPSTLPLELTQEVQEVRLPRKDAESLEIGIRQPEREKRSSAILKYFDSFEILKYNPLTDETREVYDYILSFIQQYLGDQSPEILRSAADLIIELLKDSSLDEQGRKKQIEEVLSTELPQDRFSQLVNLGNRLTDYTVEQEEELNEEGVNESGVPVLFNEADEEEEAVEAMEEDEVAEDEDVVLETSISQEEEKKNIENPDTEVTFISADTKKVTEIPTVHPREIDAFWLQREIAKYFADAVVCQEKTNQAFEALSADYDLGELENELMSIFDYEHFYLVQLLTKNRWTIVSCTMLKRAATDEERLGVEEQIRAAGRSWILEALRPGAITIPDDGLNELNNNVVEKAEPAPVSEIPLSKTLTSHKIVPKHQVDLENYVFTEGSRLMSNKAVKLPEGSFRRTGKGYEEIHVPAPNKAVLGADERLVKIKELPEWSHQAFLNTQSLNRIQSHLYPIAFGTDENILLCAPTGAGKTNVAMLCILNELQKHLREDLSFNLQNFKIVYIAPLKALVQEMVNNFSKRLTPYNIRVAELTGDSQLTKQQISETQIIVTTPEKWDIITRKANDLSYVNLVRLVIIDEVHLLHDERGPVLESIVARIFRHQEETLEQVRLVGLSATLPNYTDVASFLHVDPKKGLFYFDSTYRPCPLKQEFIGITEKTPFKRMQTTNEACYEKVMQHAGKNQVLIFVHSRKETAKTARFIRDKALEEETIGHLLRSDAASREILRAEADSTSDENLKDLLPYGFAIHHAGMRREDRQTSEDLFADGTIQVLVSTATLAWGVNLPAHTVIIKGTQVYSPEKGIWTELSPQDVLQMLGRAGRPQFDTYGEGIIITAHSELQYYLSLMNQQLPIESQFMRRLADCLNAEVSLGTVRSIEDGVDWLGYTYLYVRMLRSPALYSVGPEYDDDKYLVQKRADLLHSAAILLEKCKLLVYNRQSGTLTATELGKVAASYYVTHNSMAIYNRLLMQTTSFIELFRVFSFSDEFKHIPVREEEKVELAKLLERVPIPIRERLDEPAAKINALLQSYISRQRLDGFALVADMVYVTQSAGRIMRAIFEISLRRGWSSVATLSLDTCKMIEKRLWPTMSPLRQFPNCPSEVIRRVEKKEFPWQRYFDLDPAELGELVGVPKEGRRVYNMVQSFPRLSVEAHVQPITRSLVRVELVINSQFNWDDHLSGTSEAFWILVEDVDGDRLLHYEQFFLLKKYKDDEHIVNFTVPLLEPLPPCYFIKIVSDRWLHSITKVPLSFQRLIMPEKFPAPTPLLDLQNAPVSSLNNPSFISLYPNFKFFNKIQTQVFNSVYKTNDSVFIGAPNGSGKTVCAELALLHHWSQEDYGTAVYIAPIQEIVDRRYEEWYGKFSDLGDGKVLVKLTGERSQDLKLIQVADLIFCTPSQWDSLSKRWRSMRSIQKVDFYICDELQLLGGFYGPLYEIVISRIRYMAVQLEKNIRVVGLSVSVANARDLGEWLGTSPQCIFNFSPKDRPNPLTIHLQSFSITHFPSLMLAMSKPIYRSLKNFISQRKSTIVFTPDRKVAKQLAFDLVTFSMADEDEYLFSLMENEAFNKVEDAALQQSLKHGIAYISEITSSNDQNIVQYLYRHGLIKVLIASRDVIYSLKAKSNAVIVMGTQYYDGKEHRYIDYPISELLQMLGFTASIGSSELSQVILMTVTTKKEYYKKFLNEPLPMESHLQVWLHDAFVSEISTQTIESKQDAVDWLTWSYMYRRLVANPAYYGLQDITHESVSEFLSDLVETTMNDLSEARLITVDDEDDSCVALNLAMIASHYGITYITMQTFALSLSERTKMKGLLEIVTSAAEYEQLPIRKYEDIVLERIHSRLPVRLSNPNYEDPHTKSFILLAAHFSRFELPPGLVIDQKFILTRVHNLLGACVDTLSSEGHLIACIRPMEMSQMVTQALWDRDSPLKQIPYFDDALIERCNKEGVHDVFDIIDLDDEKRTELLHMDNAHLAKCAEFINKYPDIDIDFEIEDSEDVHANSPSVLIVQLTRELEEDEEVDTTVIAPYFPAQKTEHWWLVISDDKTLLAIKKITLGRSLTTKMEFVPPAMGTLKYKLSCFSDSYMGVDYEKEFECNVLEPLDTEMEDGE
UniProt Q9UTC7: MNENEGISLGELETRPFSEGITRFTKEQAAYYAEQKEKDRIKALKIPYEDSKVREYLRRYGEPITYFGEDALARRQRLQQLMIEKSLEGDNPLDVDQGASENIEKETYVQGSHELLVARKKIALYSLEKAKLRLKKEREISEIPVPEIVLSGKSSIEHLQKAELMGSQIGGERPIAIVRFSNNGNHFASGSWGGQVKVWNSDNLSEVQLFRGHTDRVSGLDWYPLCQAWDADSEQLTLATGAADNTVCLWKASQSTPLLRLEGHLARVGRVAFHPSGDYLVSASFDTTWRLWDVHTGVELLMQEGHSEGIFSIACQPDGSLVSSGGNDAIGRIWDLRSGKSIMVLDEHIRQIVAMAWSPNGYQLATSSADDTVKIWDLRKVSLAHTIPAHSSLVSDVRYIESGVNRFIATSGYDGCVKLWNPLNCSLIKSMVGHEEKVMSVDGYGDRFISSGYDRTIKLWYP
UniProt O42945: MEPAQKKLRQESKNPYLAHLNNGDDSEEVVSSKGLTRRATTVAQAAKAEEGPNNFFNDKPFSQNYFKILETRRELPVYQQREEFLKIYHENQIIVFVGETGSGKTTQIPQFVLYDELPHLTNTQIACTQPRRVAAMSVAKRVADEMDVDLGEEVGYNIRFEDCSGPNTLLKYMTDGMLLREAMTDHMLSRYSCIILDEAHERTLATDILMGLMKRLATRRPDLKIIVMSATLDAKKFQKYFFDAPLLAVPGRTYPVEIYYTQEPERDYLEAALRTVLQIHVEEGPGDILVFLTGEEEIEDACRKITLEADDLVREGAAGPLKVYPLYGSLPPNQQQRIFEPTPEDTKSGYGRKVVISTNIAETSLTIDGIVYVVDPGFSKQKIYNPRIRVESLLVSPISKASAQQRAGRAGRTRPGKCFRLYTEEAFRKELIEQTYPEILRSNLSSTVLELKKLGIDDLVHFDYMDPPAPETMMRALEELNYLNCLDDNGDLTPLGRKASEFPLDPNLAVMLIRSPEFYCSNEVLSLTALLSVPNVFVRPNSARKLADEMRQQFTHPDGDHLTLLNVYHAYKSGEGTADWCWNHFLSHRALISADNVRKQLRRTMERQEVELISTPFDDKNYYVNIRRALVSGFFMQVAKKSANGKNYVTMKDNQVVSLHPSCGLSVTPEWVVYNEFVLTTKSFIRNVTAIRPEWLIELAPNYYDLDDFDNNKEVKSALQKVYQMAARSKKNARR
UniProt O14139: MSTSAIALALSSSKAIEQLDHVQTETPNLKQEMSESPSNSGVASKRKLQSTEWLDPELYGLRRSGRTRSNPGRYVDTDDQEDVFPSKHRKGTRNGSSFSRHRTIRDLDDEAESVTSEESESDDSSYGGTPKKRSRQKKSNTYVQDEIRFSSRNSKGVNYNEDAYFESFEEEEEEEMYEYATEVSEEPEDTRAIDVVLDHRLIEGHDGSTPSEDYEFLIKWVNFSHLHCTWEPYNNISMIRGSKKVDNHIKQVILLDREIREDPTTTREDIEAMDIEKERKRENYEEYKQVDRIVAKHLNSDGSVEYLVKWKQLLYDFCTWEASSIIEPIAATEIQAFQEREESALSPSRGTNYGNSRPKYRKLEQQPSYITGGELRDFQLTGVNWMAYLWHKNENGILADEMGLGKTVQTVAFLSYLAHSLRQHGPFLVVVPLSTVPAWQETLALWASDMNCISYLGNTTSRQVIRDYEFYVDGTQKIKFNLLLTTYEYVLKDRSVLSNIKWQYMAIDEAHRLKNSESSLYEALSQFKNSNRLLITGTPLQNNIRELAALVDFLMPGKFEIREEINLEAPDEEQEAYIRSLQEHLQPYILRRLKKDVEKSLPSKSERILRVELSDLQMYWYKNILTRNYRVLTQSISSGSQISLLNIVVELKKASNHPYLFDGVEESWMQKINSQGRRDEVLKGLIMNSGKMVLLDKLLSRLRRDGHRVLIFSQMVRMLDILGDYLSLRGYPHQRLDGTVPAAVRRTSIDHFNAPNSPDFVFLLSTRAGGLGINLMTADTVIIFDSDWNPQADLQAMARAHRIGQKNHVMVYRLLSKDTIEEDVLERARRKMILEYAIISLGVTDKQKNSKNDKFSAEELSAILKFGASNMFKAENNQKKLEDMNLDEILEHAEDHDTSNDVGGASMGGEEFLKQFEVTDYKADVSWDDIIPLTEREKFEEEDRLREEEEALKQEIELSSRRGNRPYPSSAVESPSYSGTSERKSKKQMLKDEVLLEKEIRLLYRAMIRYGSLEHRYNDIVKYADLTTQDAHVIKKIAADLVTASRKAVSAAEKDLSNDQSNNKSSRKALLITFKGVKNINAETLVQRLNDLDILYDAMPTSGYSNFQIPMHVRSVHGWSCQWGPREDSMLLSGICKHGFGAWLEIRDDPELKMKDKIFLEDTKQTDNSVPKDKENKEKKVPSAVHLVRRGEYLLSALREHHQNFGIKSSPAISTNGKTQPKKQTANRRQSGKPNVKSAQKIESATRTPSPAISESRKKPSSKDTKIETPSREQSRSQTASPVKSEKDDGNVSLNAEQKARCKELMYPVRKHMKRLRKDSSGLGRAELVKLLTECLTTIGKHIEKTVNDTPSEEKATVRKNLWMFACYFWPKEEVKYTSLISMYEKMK
UniProt O59670: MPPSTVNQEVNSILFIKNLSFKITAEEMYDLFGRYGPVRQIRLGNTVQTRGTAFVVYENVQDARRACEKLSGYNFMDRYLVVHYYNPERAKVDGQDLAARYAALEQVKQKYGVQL

Target: T1, FLAG-HA-Rbm10 (S. pombe) (UniProt P87143)
T1 sequence: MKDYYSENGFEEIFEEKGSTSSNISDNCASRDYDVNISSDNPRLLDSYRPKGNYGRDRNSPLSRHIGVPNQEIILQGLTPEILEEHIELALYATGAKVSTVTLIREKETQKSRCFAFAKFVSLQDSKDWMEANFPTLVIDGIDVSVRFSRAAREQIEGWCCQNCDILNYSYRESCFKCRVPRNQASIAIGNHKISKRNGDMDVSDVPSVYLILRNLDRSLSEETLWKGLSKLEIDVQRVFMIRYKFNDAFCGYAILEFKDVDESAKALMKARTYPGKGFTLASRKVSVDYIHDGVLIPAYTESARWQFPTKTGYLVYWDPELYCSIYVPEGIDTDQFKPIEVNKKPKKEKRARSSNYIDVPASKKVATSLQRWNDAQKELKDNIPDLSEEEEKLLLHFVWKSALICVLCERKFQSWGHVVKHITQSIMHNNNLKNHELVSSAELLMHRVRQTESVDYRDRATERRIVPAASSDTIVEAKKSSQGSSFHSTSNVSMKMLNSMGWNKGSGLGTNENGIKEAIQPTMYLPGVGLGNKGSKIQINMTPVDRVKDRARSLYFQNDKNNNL
Experiment: affinity purification with mass spectrometry; two-step purification (anti-FLAG beads, 3xFLAG peptide elution, then uMACS HA magnetic beads) of overexpressed FLAG-HA-Rbm10 from S. pombe lysate with Benzonase; three independent purifications; control purification from an untagged strain

Uhp1 (S. pombe (endogenous in S. pombe cells))
binding: binds

Usp104 (S. pombe (endogenous in S. pombe cells))
binding: binds

Usp105 (from UniProt O74970)
binding: binds

Brr2 (from UniProt Q9UT24 1-2176)
binding: binds

Rna4 (from UniProt Q9UTC7)
binding: binds

Prp43 (from UniProt O42945 1-735)
binding: binds

CHD1/Hrp3 (from UniProt O14139 1-1388)
binding: binds

Spp42 (from UniProt O14187 1-2363)
binding: binds

Ccq1 (from UniProt Q10432 1-735)
binding: binds

Sap14 (from UniProt O59670)
binding: binds

Dbl8 (S. pombe (endogenous in S. pombe cells))
binding: binds
